Measurements published in paper PMC8225389.
These are yes or no findings as the source states them, for the method shown. Some binding calls cover weakened binding; strength is not graded here. Where a sequence is shown, tags or fusion partners need not be part of it.

By UniProt entry, the sequences of proteins in these tests, tags left out. Where a name states a change or a piece, a line headed by the entry shows the natural chain unless it says otherwise. Residues count along the entry.
UniProt P02461, residues 154-1221: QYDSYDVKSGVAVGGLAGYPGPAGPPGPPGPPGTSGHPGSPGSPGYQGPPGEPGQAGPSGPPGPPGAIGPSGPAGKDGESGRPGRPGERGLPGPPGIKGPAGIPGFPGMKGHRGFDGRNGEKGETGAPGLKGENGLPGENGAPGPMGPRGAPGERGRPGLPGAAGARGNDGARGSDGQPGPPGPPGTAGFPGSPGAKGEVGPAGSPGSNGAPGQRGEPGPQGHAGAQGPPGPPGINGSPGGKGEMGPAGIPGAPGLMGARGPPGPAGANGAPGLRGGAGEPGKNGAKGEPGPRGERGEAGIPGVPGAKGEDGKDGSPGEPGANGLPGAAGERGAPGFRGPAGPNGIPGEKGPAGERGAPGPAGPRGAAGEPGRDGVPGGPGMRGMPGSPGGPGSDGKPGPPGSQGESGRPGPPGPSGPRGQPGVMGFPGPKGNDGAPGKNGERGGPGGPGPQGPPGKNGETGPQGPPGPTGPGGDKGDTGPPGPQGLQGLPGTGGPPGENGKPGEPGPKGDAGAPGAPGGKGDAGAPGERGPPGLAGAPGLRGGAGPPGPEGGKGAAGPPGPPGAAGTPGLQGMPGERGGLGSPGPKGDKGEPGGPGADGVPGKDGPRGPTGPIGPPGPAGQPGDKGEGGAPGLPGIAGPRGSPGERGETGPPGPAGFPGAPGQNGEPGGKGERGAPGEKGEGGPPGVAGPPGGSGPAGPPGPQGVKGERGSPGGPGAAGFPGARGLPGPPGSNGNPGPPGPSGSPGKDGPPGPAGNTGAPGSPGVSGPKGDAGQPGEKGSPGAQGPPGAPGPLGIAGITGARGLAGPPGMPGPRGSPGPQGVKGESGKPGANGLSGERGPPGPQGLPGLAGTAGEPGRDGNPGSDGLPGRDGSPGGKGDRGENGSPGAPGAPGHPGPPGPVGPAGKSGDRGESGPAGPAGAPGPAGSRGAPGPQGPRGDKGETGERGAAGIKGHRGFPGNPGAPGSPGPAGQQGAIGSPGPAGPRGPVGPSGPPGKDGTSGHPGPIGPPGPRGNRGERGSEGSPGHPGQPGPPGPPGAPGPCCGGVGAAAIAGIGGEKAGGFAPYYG
UniProt P11087: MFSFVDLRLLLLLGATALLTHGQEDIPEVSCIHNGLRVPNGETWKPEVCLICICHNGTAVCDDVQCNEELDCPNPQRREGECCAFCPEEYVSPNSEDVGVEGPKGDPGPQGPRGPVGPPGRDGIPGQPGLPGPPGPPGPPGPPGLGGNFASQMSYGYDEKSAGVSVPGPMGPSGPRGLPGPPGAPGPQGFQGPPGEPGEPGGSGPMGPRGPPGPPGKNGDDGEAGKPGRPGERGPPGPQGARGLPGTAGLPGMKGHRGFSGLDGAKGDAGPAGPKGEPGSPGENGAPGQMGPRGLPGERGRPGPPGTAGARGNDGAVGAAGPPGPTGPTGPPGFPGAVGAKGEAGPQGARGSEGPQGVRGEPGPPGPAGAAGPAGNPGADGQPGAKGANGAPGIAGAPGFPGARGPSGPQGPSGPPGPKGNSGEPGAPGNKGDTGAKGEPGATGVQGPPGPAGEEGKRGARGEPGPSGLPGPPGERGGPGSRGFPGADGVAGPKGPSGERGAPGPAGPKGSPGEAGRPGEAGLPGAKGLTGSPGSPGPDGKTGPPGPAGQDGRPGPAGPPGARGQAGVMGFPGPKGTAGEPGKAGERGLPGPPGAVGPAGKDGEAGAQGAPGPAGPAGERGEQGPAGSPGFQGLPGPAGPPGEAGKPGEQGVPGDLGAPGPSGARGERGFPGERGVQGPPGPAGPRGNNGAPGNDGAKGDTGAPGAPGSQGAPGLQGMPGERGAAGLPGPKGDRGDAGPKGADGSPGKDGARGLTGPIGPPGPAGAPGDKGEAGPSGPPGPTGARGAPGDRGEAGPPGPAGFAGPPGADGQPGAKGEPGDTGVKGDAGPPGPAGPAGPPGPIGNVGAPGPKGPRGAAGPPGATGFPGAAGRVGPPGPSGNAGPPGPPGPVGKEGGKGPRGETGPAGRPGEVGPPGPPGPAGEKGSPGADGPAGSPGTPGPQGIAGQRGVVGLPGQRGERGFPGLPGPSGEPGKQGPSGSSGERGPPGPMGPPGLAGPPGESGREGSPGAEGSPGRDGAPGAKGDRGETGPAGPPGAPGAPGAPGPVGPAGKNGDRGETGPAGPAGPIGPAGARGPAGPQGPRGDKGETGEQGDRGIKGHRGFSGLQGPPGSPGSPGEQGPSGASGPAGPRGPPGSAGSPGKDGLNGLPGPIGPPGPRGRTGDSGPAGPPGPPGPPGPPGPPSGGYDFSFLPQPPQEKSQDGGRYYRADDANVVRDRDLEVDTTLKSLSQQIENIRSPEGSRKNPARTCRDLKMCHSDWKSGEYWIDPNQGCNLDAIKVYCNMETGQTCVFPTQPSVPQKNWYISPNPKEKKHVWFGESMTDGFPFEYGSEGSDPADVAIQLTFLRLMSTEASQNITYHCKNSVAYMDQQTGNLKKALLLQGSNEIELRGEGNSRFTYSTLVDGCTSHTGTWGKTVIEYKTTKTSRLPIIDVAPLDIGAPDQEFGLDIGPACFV
UniProt P13941, residues 155-1218: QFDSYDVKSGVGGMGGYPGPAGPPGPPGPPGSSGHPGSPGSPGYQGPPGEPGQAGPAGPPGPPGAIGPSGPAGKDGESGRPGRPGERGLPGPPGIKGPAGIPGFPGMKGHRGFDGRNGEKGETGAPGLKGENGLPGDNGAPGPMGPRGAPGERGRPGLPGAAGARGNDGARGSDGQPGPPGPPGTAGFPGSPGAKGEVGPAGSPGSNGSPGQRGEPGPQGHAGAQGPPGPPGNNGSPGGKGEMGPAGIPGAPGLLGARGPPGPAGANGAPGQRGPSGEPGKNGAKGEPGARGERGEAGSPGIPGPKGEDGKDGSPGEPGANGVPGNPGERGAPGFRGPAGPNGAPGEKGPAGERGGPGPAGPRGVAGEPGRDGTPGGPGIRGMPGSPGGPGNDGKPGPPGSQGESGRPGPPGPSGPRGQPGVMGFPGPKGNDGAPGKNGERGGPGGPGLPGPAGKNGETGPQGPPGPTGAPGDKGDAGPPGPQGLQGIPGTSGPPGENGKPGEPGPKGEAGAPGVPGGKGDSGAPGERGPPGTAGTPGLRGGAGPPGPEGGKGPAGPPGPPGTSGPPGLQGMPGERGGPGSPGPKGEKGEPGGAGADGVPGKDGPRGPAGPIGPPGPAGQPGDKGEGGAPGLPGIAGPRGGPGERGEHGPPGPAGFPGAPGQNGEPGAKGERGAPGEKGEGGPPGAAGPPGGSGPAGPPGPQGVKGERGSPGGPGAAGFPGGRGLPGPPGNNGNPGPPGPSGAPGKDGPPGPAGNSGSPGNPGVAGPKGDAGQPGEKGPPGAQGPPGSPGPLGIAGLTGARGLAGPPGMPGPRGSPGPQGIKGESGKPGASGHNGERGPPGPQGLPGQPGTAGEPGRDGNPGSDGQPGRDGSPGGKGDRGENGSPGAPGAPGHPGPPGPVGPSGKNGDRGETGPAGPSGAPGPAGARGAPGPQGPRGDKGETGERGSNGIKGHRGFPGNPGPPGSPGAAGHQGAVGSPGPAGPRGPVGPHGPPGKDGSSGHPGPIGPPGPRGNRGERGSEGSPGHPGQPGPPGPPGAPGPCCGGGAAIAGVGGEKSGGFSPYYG
UniProt P02452: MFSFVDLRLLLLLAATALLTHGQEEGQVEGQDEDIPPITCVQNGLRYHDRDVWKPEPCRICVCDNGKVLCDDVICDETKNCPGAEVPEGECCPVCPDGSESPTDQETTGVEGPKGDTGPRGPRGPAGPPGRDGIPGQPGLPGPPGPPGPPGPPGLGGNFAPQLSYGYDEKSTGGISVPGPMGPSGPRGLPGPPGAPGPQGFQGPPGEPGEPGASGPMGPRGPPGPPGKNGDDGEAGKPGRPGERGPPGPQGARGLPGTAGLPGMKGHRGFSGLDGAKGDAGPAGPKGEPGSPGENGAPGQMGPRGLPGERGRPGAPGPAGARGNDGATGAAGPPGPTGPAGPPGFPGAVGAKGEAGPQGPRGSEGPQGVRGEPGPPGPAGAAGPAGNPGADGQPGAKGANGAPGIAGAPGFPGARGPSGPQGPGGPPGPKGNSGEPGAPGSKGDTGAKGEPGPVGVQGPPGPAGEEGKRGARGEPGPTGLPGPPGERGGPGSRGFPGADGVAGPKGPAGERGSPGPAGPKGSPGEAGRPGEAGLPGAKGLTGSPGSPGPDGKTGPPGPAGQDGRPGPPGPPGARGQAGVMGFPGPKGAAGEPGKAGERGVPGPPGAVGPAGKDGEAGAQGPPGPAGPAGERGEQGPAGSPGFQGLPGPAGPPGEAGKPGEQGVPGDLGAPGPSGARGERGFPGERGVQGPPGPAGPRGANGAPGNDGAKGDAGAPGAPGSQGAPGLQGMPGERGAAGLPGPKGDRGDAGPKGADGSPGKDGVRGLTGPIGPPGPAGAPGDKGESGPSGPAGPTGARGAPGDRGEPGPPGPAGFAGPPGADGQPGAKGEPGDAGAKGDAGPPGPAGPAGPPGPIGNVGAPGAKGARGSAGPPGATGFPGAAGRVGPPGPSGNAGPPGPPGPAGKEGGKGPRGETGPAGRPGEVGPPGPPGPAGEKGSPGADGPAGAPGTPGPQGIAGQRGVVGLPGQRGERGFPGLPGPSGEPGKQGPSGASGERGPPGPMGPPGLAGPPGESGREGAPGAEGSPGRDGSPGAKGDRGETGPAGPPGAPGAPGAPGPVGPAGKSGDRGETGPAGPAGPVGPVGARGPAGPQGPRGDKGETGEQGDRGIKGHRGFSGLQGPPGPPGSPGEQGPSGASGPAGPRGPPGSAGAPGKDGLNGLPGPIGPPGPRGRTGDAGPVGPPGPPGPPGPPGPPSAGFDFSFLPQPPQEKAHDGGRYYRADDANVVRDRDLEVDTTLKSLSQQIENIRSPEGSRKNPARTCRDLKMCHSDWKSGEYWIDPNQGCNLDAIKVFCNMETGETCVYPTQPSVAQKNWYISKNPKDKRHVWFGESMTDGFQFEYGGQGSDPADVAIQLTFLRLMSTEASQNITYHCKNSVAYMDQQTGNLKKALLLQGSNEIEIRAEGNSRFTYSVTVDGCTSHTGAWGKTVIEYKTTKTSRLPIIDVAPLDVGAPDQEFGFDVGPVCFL
UniProt P08123: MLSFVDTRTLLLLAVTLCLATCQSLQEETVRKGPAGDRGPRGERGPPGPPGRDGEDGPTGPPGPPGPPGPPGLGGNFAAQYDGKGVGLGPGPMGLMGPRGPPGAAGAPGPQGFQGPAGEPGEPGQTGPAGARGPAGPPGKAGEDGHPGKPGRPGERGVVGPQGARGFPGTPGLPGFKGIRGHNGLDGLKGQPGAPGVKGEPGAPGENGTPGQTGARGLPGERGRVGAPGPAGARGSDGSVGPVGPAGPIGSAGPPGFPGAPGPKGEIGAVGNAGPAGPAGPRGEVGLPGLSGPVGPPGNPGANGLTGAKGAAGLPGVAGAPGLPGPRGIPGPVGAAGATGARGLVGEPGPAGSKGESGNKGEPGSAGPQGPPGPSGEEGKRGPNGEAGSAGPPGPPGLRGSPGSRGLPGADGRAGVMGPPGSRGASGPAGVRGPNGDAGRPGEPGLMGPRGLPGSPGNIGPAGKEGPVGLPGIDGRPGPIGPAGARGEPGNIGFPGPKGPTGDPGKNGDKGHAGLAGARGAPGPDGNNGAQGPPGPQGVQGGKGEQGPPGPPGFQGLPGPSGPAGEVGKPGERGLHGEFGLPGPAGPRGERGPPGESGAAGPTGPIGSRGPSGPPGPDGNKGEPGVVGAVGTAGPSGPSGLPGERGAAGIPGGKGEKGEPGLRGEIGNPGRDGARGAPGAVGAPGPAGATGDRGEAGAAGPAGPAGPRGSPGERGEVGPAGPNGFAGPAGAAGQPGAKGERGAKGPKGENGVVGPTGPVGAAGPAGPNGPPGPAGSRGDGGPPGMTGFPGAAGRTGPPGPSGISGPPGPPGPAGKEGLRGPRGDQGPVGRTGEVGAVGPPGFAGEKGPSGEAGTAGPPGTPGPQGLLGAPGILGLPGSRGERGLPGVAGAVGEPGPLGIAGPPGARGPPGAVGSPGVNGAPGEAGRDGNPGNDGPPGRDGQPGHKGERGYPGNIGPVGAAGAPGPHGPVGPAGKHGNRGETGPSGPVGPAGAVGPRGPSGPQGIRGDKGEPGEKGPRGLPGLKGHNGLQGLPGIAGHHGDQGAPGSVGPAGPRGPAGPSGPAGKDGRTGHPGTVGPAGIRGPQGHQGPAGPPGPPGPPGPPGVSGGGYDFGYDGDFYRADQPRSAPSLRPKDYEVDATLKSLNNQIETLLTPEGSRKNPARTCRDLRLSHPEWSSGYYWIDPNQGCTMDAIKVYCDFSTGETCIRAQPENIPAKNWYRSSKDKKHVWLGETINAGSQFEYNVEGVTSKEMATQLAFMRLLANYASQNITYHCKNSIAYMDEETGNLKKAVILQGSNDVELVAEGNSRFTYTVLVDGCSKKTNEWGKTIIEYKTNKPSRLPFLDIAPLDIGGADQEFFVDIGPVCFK

T1: NC410, a dimeric LAIR-2 human IgG1 Fc fusion protein (human) (UniProt Q6ISS4)
T1 sequence: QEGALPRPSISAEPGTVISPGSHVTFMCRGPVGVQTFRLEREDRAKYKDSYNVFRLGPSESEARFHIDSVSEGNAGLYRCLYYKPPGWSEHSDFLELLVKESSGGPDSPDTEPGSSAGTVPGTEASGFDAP

B1: human LAIR-1 Fc fusion protein (Fc fusion, UniProt Q6GTX8 22-165)
chain: QEEDLPRPSISAEPGTVIPLGSHVTFVCRGPVGVQTFRLERDSRSTYNDTEDVSQASPSESEARFRIDSVREGNAGLYRCIYYKPPKWSEQSDYLELLVKESSGGPDSPDTEPGSSAGPTQRPSDNSHNEHAPASQGLKAEHLY
modifications: biotin (EZ-Link NHS-PEG4-Biotin)
B2: NC410, a dimeric LAIR-2 human IgG1 Fc fusion protein (Fc fusion, UniProt Q6ISS4 22-152)
chain: T1 sequence

The molecules below were run against T1, NC410, a dimeric LAIR-2 human IgG1 Fc fusion protein (human) (assay: BLI; ForteBio Octet RED96, avidity; anti-human Fc capture sensors loaded with LAIR-2-Fc (NC410, 20 µg/mL in ForteBio assay buffer), dipped into collagen I (1.56-100 µg/mL) or collagen III (0.78-50 µg/mL); both purified).

binding, binds:
human collagen III (R&D Systems) (from UniProt P02461 154-1221)
mouse collagen I (Ray Biotech) (from UniProt P11087 152-1207; Q01149 86-1125)
rat collagen I (Yo Protein) (from UniProt P02454 152-1207; P02466 86-1125)
rat collagen III (Yo Protein) (from UniProt P13941 155-1218)

These molecules were tested against human collagen I (StemCell) (human) (UniProt P02452+P08123) (assay: time-resolved fluorometry (TRF) immunoassay; EIA plates coated with human collagen I in 0.01 N HCl overnight at 4°C, blocked with 3% BSA; mixture of NC410 and human LAIR-1 Fc (one of them biotinylated) 2 hr at ambient temperature; Europium-labeled streptavidin, DELFIA; both purified).

binding, binds:
B1
B2
